doi:10.1101/2022.03.03.482848
Like-named read-outs stand apart in the source and are kept apart here. Results are given in words; binding and its absence hold for the method and conditions named. Binding seen in cells or lysates may run through a third protein. A yes stands for co-enrichment or nearness to the bait. Other partners may have been found. For some assays here: A no says only that the protein was not detected with the bait.

Chains of the proteins cited; added tags and fusions are not shown.
UniProt Q969V5: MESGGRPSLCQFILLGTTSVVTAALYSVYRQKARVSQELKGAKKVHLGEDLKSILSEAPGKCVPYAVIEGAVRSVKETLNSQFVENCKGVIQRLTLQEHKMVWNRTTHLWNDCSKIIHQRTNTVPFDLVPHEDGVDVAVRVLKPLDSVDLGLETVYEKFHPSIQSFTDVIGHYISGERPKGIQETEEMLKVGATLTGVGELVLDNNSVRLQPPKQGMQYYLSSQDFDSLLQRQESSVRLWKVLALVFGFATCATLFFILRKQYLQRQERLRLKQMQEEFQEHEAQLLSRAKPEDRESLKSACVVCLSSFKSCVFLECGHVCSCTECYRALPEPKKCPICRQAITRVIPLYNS
UniProt Q07812: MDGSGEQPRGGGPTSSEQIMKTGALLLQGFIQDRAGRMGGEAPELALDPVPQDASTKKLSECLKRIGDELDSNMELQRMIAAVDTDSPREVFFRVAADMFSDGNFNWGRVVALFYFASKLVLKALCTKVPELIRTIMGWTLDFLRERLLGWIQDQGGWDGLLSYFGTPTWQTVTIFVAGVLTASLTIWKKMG
UniProt Q16665: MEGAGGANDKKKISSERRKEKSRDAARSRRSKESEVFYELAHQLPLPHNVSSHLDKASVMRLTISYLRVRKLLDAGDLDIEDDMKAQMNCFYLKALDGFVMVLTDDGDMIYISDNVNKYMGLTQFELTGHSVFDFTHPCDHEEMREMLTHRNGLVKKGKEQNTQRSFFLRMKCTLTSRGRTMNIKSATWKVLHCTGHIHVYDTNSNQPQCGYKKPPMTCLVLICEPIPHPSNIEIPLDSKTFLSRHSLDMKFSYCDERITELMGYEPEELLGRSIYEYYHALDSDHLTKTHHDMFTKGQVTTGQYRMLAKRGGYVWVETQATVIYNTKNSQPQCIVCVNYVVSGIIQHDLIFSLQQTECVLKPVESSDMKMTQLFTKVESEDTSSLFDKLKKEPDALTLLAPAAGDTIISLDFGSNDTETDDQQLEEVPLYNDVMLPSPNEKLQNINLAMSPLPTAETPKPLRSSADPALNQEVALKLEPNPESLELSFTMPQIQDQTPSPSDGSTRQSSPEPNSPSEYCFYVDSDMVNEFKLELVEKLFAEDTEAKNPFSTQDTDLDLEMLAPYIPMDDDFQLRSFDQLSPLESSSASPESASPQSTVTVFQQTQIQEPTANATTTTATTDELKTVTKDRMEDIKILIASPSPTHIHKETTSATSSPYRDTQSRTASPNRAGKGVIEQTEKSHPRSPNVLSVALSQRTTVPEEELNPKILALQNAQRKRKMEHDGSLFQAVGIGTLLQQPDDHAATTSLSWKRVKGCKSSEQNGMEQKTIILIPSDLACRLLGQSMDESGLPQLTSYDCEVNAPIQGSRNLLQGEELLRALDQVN
UniProt Q8IXI2: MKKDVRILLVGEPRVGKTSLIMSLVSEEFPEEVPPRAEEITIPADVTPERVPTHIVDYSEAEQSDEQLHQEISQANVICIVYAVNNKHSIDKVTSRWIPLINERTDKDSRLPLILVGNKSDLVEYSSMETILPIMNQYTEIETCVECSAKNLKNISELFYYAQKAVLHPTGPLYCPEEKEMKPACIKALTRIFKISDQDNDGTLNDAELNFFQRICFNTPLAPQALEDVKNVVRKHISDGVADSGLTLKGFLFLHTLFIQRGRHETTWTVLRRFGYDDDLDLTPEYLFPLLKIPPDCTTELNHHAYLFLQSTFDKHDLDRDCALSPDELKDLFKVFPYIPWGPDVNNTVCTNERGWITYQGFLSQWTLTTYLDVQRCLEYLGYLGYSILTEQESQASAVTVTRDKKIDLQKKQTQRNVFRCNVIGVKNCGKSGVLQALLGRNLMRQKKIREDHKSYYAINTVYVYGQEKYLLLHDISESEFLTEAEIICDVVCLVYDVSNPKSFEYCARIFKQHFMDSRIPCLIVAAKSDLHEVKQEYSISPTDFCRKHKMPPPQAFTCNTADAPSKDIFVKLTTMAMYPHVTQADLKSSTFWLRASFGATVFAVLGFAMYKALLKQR
UniProt Q70CQ3: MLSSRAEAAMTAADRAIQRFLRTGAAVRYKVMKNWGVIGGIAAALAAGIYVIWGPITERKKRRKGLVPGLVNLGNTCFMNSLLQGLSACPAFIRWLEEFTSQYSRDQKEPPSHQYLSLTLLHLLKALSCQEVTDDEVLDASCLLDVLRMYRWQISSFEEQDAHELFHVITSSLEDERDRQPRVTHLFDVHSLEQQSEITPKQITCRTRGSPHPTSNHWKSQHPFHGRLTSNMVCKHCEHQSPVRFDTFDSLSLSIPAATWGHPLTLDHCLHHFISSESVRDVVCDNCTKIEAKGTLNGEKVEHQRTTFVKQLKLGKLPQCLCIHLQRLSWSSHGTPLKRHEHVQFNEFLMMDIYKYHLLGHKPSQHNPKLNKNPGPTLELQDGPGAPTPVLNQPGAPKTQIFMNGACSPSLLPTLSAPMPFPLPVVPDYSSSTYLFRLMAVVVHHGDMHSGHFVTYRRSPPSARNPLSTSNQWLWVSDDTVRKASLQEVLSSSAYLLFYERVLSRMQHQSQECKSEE
UniProt Q7Z434: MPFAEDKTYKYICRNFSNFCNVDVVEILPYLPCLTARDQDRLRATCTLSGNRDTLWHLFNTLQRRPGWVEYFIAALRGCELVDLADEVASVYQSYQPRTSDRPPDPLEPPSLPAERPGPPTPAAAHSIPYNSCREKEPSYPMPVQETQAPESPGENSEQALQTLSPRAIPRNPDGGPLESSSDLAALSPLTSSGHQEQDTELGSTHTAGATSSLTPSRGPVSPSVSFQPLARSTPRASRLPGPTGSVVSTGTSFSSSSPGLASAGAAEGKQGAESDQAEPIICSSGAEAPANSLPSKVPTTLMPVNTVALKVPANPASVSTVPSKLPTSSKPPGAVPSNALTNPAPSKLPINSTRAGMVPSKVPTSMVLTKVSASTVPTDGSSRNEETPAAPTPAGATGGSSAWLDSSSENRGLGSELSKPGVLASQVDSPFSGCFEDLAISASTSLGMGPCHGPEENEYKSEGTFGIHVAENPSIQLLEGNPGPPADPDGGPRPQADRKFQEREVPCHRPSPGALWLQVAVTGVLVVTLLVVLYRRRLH
UniProt P13861: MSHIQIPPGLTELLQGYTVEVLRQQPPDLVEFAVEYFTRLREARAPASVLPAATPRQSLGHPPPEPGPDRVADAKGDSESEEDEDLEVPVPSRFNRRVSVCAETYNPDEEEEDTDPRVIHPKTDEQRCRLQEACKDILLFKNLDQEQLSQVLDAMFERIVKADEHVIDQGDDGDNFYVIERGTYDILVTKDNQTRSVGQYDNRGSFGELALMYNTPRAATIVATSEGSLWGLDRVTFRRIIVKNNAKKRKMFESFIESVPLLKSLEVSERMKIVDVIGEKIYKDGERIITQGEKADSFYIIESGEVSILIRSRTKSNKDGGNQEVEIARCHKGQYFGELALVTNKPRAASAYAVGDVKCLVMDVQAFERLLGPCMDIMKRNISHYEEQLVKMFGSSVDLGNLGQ
UniProt O00429: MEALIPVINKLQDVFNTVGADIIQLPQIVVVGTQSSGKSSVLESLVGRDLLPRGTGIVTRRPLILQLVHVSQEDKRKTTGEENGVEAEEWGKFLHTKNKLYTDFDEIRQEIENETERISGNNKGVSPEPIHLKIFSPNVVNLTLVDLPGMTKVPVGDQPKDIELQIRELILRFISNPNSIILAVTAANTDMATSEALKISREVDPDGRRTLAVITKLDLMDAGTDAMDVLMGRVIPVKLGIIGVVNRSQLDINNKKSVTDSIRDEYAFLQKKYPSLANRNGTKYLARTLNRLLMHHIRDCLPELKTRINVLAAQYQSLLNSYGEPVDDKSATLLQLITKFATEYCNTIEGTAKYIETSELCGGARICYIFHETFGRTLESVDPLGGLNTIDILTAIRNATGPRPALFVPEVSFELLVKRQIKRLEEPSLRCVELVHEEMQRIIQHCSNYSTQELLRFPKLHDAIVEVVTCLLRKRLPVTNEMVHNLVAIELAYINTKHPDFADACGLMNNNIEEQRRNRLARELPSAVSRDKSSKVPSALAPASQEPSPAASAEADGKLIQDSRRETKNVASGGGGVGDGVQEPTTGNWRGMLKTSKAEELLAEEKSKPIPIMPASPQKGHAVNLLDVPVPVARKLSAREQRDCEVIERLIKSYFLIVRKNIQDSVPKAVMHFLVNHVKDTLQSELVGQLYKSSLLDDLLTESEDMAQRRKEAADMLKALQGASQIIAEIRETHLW
UniProt Q27J81: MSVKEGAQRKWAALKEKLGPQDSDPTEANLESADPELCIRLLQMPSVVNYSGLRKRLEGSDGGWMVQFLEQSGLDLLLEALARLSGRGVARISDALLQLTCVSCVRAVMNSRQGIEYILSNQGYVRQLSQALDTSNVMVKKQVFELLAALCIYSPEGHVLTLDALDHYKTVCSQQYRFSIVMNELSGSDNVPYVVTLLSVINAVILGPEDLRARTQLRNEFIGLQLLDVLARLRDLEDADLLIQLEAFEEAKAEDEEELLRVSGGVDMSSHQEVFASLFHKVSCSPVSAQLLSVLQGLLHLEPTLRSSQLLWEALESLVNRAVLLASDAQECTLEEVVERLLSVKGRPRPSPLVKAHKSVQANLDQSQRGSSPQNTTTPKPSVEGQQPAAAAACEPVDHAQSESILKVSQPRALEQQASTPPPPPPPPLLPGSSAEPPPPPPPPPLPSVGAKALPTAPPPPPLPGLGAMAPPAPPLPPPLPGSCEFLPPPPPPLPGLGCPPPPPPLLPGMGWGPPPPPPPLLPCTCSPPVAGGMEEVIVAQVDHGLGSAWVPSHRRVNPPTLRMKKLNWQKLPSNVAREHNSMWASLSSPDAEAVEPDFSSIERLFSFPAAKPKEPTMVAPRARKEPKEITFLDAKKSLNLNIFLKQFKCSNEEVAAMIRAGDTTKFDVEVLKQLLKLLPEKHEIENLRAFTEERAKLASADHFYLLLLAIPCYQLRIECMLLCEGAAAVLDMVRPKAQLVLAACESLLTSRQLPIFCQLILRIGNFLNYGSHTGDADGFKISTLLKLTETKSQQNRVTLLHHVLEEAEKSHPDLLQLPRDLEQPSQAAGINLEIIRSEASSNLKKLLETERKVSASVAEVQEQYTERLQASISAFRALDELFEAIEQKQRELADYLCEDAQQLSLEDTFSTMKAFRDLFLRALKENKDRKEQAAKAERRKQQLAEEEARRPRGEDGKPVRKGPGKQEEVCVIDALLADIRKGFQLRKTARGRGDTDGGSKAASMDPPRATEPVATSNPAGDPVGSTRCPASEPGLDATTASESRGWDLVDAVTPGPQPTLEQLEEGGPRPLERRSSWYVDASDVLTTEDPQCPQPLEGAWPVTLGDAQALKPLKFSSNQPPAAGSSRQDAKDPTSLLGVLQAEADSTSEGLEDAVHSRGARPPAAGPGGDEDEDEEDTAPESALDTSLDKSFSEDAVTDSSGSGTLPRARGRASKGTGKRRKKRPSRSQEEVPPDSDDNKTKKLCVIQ

B1: ABCD3/PMP70, peroxisomal bile acid transporter (human, endogenous in HEK293) (protein, UniProt P28288 1-659)
chain: MAAFSKYLTARNSSLAGAAFLLLCLLHKRRRALGLHGKKSGKPPLQNNEKEGKKERAVVDKVFFSRLIQILKIMVPRTFCKETGYLVLIAVMLVSRTYCDVWMIQNGTLIESGIIGRSRKDFKRYLLNFIAAMPLISLVNNFLKYGLNELKLCFRVRLTKYLYEEYLQAFTYYKMGNLDNRIANPDQLLTQDVEKFCNSVVDLYSNLSKPFLDIVLYIFKLTSAIGAQGPASMMAYLVVSGLFLTRLRRPIGKMTITEQKYEGEYRYVNSRLITNSEEIAFYNGNKREKQTVHSVFRKLVEHLHNFILFRFSMGFIDSIIAKYLATVVGYLVVSRPFLDLSHPRHLKSTHSELLEDYYQSGRMLLRMSQALGRIVLAGREMTRLAGFTARITELMQVLKDLNHGKYERTMVSQQEKGIEGVQVIPLIPGAGEIIIADNIIKFDHVPLATPNGDVLIRDLNFEVRSGANVLICGPNGCGKSSLFRVLGELWPLFGGRLTKPERGKLFYVPQRPYMTLGTLRDQVIYPDGREDQKRKGISDLVLKEYLDNVQLGHILEREGGWDSVQDWMDVLSGGEKQRMAMARLFYHKPQFAILDECTSAVSVDVEGYIYSHCRKVGITLFTVSHRKSLWKHHEYYLHMDGRGNYEFKQITEDTVEFGS
B2: DRP1 receptor MFF (protein, UniProt Q9GZY8 1-342)
chain: MSKGTSSDTSLGRVSRAAFPSPTAAEMAEISRIQYEMEYTEGISQRMRVPEKLKVAPPNADLEQGFQEGVPNASVIMQVPERIVVAGNNEDVSFSRPADLDLIQSTPFKPLALKTPPRVLTLSERPLDFLDLERPPTTPQNEEIRAVGRLKRERSMSENAVRQNGQLVRNDSLWHRSDSAPRNKISRFQAPISAPEYTVTPSPQQARVCPPHMLPEDGANLSSARGILSLIQSSTRRAYQQILDVLDENRRPVLRGGSAAATSNPHHDNVRYGISNIDTTIEGTSDDLTVVDAASLRRQIIKLNRRLQLLEEENKERAKREMVMYSITVAFWLLNSWLWFRR

Experiments:
Assay in all cases: proximity labelling
[1] = target: MAPL-BirA*Flag (full-length human MAPL fused to BirA* and Flag) (human) (UniProt Q969V5)
[2] = target: MAPL-BirA*Flag (full-length human MAPL fused to BirA* and Flag) (human) (UniProt Q969V5); remark: listed apart in the source
[3] = target: MAPL-BirA*Flag (full-length human MAPL fused to BirA* and Flag) (human) (UniProt Q969V5); remark: listed apart in the source

Molecule	binding [1]	binding [2]	binding [3]
BAX (from UniProt Q07812 1-192)	binds weakly	–	–
HIF1α (from UniProt Q16665 1-826)	no binding	–	–
MIRO1 (from UniProt Q8IXI2 1-618)	binds weakly	–	–
USP30, a regulator of mitophagy and pexophagy (from UniProt Q70CQ3 1-517) (enzyme)	binds	–	–
antiviral signaling protein MAVS (from UniProt Q7Z434 1-540)	binds	–	–
cAMP-dependent protein kinase type II-alpha regulatory subunit PRKAR2A (from UniProt P13861 1-404)	binds	–	–
fission GTPase DRP1 (human, endogenous in HEK293) (from UniProt O00429 1-736)	binds	–	–
inverted formin INF2 (from UniProt Q27J81 1-1249)	binds	–	–
B1	–	binds	binds
B2	–	–	binds
